Results from publication PMC10301331.
No constants are given. Whether binding was seen depends on the method and setting.

Protein sequences, listed by entry. Tags and fused reporters are not part of them.
UniProt P0ABD3: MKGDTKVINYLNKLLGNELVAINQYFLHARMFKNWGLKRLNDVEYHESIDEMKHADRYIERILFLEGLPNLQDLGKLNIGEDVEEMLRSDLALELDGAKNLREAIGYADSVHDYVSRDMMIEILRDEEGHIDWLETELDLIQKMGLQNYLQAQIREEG

Target: His-tagged Escherichia coli bacterioferritin (C-terminal His-tag) (E. coli) (UniProt P0ABD3)
Assay: dynamic light scattering; Bfr acidified to pH 2.0, 23 °C, 90 min (declustering); both purified

binding: no binding (condition: at pH 2.0)
Substance: His-tagged Escherichia coli bacterioferritin (C-terminal His-tag) (from UniProt P0ABD3 1-158)
